This note sets out measurements from US11440887B2, “Substituted 1,2,3,4-tetrahydroquinolines as inhibitors of repair enzyme 8-oxoguanine deoxyribonucleic acid glycosylase activity” (The Board of Trustees of the Leland Stanford Junior …, priority 2017, dated 2022).

Each structure is given as a SMILES string.

Data set [1] has as its system Abasic DNA. The data set can be described thus: Tm study with abasic DNA. It counts as binding. As to conditions: DNA 1 μM, 41 2 μM (1% DMSO), NEBuffer.
In data set [2] the test system is OGR1 probe. The data set can be described thus: Tm study with OGR1 probe. It counts as binding. As to conditions: DNA 1 μM, 41 2 μM (10% DMSO), PBS buffer and betaine (10 mM).

For orientation: ΔTm means the change in melting temperature against a reference sample. Turning to `NC(=O)c1cccc(-c2ccc(S(=O)(=O)Nc3ccc4c(c3)N(C(=O)C3CC3)CCC4)cc2)c1` [Compound 41], in data set [1], the “Tm(+)” value worked out at 71.3 ± 0.29 °C and the ΔTm is 0.0 °C. In data set [2], the “Tm(+)” value came out at 82.5 ± 0.25 °C and the ΔTm is 0.3 °C.
